Data source: PubChem BioAssay AID602203 (INSERM, 2012)
Test: 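Follow-up of knock-downs that sensitize or protect A549 cells against cisplatin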 (follow-up of hits). Cell system: human A549 lung cancer cells. Knock-down reagent: siRNA pair against human genes. Conditions: cisplatin at a dose killing half of control-siRNA cells, given 48 h after transfection. Measurement: 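Cisplatin at a dose killing 50% of control cells, 48 h post-transfection; each siRNA +1 protective, -1 sensitizing, 0 if toxic (LDH) or antiproliferative (WST-1); per-gene sum and mean death change versus control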. Scale: summed siRNA score for cisplatin death: higher = more siRNAs reduced cisplatin-induced cell death; change in cisplatin death versus control: higher = fewer cells died than in control. Call rule: In these data the active calls have summed siRNA score for cisplatin death at about -3 or lower, or at about 3 or higher.
Here is one part, drawn at random, of 999 deposited reagents. 85 of them (8.5%) count as active. 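Unclear how single-siRNA scores of -1, 0 or +1 give the printed -4 to 4 range; calls lie near -3 or 3 and beyond.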 Entries without a mark were called inactive. No sequences are given here. Not given: the amount of reagent, the time to read-out, the dose of the treatment.

| target | summed siRNA score for cisplatin death | change in cisplatin death versus control (percentage points) |
| --- | --- | --- |
| ARL2 | -1 | – |
| RAC2 | -3 (active) | -14.9 |
| COL4A3 | -1 | – |
| PER1 | -2 | – |
| SIRT4 | 1 | – |
| CHAT | 0 | – |
| LOC440611 | 3 (active) | 8.1 |
| MASP1 | -1 | – |
| DCLRE1A | -1 | – |
| ZDHHC9 | -4 (active) | -12.4 |
| PACSIN1 | 0 | – |
| LOC389710 | 0 | – |
| GPC2 | -1 | – |
| LOC92235 | -2 | – |
| COQ3 | -1 | – |
| DTNBP1 | 2 | – |
| ACAD10 | 0 | – |
| CDC42 | 1 | – |
| ABCB8 | -1 | – |
| LOC440748 | 1 | – |
| FRAT2 | -1 | – |
| TFEC | 1 | – |
| LOC442198 | -1 | – |
| UNC13A | -1 | – |
| SLC11A2 | 1 | – |
| DSG3 | 1 | – |
| RHOC | 2 | – |
| HP | -1 | – |
| CENATAC | 0 | – |
| GPR148 | 1 | – |
| AGPAT2 | -1 | – |
| AFG3L2 | -2 | – |
| NCKAP1 | -3 (active) | -7.63 |
| STK38 | -1 | – |
| IAPP | -4 (active) | -8.82 |
| TCAIM | 1 | – |
| LOC387941 | 0 | – |
| KLF13 | 0 | – |
| LOC442248 | 1 | – |
| APOBEC3A | -1 | – |
| ERMAP | 1 | – |
| PLOD3 | -1 | – |
| UBE2T | -3 (active) | -12 |

Copied from the listing for reference:
| target | summed siRNA score for cisplatin death | change in cisplatin death versus control (percentage points) |
| --- | --- | --- |
| STK38 | -1 | – |
| IAPP | -4 (active) | -8.82 |
| TCAIM | 1 | – |
| LOC387941 | 0 | – |
